Measurements reported in publication PMC10650578.
These are yes or no findings as the source states them, for the method shown. Binding seen in cells or lysates may run through a third protein. Some binding calls cover weakened binding; strength is not graded here.

Amino acid sequences for entries named in this document (tags omitted).
UniProt P49792: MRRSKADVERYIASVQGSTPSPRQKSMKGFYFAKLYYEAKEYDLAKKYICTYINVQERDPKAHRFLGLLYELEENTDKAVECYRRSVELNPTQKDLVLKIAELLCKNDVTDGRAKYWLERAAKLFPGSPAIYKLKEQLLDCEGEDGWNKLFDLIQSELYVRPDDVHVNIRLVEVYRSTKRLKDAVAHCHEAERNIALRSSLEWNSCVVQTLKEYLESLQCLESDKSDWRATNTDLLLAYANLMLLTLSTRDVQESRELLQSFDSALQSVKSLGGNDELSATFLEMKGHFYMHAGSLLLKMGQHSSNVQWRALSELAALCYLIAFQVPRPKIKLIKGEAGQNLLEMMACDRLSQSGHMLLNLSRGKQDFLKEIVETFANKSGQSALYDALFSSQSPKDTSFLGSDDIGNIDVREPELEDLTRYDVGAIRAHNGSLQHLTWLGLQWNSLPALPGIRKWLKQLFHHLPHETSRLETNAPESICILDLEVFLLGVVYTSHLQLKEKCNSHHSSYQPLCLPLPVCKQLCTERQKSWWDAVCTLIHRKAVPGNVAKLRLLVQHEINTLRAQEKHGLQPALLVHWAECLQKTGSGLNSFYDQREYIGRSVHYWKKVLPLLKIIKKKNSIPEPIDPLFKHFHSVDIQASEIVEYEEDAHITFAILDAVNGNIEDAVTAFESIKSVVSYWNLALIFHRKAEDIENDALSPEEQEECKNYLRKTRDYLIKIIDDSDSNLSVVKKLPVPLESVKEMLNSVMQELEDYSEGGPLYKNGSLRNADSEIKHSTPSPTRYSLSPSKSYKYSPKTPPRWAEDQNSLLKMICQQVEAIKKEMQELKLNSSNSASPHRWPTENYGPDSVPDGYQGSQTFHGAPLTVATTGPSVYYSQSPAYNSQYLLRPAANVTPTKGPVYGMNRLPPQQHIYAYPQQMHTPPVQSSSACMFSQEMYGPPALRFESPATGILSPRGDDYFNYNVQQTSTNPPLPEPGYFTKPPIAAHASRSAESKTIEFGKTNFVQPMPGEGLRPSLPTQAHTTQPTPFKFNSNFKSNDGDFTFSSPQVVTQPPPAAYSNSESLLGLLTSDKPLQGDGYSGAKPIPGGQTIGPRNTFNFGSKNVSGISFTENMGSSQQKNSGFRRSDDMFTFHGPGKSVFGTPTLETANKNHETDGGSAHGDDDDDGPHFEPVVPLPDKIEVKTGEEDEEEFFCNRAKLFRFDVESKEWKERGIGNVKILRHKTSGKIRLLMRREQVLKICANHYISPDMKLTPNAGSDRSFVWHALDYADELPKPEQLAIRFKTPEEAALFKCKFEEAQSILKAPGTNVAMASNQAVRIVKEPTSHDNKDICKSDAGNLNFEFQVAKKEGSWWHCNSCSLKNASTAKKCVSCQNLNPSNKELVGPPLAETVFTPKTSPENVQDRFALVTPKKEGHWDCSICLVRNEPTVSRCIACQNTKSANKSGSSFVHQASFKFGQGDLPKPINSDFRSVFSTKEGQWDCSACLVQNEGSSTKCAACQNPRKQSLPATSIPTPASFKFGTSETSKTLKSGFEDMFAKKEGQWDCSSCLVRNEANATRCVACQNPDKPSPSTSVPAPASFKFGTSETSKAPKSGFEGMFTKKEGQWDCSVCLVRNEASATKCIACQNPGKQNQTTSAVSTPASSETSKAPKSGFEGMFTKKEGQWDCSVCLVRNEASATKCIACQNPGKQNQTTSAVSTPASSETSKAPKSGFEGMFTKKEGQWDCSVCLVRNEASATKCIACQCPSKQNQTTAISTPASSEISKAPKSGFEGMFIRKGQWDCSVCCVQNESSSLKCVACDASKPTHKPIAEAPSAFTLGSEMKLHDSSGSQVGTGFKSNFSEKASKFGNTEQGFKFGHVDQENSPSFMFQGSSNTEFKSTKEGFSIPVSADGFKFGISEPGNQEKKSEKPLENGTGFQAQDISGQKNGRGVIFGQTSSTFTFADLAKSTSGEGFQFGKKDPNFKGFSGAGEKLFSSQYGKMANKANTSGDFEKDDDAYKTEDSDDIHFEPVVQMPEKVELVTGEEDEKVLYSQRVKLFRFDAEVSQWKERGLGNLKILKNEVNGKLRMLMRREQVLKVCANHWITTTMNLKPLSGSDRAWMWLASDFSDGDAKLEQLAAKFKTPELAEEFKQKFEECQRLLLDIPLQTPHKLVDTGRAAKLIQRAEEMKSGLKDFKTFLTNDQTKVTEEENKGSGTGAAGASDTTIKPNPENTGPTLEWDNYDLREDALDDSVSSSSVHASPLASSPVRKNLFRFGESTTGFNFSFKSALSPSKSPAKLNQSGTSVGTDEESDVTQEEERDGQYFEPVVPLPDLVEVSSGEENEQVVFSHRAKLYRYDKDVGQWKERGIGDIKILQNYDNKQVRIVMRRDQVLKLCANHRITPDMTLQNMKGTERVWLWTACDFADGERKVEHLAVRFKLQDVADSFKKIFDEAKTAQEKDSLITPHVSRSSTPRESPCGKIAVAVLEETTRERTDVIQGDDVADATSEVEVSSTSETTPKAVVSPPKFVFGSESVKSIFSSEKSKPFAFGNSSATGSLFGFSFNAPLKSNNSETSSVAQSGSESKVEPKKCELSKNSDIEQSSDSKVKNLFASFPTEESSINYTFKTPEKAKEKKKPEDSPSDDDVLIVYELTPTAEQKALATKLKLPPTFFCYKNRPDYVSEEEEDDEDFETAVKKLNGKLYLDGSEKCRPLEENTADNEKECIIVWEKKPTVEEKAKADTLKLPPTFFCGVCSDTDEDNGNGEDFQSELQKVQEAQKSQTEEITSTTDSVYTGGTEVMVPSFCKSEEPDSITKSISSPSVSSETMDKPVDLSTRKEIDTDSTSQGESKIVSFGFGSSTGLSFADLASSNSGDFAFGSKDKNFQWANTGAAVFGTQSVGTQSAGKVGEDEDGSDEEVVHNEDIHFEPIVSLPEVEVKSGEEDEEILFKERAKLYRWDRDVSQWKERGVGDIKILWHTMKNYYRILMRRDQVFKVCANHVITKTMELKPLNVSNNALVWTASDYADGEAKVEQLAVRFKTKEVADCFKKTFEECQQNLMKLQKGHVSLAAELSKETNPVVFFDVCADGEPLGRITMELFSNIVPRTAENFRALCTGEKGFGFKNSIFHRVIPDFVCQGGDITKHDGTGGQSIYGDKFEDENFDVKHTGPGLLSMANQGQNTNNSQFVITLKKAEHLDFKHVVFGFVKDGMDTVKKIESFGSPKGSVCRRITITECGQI

Columns and labels:
[1] = target: T1, RANGAP1 (human (endogenous in HeLa)) (UniProt P46060); assay: proximity ligation; intermolecular PLA (Duolink) in fixed HeLa cells, endogenous proteins, primary antibodies against the two proteins; PLA signals/cell counted in mitotic stages against interphase (rare before nuclear envelope breakdown, peak in metaphase)
T1 sequence: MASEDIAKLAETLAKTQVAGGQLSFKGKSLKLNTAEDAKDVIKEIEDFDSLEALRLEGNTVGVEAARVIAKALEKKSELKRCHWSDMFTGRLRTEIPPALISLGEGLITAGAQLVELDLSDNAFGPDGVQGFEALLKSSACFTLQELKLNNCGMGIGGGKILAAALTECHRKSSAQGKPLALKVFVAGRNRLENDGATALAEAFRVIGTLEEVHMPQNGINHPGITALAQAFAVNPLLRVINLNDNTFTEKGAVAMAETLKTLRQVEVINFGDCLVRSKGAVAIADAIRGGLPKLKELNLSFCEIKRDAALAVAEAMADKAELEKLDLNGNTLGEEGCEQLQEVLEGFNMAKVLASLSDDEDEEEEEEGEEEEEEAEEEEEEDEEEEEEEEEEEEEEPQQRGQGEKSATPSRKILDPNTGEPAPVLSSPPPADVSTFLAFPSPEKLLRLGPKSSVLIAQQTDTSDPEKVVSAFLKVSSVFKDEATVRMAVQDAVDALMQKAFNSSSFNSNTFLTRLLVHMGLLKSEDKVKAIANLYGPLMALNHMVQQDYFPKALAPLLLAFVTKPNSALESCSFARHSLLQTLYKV

[2] = target: RANBP2 (human (endogenous in HeLa)) (UniProt P49792); assay: as above

B1: Nucleolar and Spindle-Associated Protein 1 (NuSAP1) (protein, UniProt Q9BXS6 1-441)
chain: MIIPSLEELDSLKYSDLQNLAKSLGLRANLRATKLLKALKGYIKHEARKGNENQDESQTSASSCDETEIQISNQEEAERQPLGHVTKTRRRCKTVRVDPDSQQNHSEIKISNPTEFQNHEKQESQDLRATAKVPSPPDEHQEAENAVSSGNRDSKVPSEGKKSLYTDESSKPGKNKRTAITTPNFKKLHEAHFKEMESIDQYIERKKKHFEEHNSMNELKQQPINKGGVRTPVPPRGRLSVASTPISQRRSQGRSCGPASQSTLGLKGSLKRSAISAAKTGVRFSAATKDNEHKRSLTKTPARKSAHVTVSGGTPKGEAVLGTHKLKTITGNSAAVITPFKLTTEATQTPVSNKKPVFDLKASLSRPLNYEPHKGKLKPWGQSKENNYLNQHVNRINFYKKTYKQPHLQTKEEQRKKREQERKEKKAKVLGMRRGLILAED
binding [1]: binds | binding [2]: binds
